Results on one substance are retold here after paper PMC7029000.

The chains behind the UniProt entries cited, without tags or fusion partners.
UniProt P52480: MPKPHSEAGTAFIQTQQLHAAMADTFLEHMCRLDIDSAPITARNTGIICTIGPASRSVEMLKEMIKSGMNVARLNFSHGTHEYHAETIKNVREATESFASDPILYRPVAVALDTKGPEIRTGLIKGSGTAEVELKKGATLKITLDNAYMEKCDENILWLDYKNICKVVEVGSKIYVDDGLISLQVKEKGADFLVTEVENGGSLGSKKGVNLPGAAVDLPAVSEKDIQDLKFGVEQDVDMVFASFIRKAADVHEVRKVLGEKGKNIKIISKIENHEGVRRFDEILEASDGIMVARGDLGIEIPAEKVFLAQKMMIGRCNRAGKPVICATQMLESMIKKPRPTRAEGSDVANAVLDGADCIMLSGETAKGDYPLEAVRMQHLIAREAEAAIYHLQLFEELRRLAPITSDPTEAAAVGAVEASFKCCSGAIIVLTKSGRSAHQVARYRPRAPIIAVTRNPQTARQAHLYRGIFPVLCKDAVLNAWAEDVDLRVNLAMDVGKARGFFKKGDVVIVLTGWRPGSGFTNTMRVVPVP

The target in the experiment is T1, Nrf2 (mouse (endogenous in primary astrocytes)) (UniProt Q60795).
T1 sequence: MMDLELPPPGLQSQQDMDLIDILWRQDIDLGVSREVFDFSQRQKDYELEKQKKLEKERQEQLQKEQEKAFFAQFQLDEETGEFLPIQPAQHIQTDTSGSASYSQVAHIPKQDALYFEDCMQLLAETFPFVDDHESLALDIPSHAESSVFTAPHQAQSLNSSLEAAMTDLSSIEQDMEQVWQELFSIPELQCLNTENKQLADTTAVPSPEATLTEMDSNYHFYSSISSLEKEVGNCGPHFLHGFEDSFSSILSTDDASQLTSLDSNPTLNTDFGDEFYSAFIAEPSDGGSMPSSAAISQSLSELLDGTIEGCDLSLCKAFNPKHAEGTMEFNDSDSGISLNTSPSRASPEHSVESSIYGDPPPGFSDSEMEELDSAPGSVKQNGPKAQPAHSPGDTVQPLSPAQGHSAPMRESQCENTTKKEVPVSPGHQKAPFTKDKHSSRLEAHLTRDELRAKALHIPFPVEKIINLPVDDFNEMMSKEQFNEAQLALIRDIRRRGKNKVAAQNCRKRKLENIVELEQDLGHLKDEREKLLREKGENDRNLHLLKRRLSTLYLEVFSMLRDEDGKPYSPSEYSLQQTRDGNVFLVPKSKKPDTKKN
The experiment is described as follows: affinity purification with mass spectrometry; anti-Nrf2 immunoprecipitate from primary astrocytes with or without quinpirole (DRD2 activation); label-free mass spectrometry, triplicates.

No constants are given. Whether binding was seen depends on the method and setting. Binding seen in cells or lysates may run through a third protein. A yes stands for co-enrichment or nearness to the bait. Other partners may have been found.

With “PKM2 (from UniProt P52480 1-531) (enzyme)”, the binding entry is listed as “binds”.
